The record followed here is PMC8225741.

The chains behind the UniProt entries cited, without tags or fusion partners. Where a name states a change or a piece, a line headed by the entry shows the natural chain unless it says otherwise. Residues count along the entry.
UniProt Q8IXJ9: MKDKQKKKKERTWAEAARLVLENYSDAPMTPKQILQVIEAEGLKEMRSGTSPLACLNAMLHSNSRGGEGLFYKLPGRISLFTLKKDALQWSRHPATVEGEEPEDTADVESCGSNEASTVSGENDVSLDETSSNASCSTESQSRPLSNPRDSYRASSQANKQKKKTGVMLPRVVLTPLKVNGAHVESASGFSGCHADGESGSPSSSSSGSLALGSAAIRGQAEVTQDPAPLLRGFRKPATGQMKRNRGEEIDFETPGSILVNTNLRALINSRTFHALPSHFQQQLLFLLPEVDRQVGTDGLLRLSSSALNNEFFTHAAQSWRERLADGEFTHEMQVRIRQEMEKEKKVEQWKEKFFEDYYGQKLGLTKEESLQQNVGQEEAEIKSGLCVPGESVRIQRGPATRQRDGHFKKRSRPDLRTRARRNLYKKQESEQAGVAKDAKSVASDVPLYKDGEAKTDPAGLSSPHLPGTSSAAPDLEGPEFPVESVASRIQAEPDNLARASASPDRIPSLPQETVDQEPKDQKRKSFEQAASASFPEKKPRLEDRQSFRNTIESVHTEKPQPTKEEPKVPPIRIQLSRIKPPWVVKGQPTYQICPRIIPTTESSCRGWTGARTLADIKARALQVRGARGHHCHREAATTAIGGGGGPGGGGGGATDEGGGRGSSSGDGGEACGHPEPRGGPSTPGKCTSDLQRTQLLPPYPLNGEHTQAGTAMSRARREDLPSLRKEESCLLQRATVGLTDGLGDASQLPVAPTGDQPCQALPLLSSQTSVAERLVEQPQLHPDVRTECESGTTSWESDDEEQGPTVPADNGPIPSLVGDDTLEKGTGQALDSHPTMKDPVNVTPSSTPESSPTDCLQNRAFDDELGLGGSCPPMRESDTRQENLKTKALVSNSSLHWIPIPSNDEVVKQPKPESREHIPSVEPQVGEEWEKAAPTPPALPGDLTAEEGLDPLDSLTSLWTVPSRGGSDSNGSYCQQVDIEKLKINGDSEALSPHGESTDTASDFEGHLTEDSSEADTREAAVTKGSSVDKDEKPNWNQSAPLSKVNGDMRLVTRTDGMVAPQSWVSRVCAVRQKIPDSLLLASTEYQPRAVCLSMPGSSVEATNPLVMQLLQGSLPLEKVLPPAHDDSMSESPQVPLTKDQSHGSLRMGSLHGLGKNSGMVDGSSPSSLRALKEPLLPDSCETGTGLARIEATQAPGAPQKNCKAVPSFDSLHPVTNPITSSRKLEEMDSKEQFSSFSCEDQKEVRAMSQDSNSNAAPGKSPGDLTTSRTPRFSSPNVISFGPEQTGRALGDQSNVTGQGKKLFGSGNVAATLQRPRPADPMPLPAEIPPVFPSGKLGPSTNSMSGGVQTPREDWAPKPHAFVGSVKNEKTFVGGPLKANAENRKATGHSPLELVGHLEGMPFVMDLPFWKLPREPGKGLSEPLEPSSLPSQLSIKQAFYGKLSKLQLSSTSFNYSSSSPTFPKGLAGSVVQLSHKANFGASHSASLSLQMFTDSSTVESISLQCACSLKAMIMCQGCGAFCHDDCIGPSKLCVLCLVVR
ASXL1^N646-Flag (in U2OS): residues 1-646 of Q8IXJ9
UniProt Q01167: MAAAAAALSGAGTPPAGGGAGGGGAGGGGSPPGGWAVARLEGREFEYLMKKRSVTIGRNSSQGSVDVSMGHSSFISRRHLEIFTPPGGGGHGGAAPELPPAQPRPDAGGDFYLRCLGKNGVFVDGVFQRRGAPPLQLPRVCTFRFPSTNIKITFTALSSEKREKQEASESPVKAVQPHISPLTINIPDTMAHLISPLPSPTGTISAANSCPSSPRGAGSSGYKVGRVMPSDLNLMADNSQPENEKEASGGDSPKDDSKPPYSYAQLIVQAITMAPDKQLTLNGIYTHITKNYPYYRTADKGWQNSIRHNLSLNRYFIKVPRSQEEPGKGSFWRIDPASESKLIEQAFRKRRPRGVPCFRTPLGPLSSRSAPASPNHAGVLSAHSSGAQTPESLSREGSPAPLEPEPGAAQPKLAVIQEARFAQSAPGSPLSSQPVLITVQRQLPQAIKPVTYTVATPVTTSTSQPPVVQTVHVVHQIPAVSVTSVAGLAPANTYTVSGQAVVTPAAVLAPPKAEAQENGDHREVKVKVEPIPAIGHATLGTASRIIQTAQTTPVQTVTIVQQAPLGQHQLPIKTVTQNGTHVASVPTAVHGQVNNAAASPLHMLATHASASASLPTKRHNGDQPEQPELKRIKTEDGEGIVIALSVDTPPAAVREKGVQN

The target in test [1] is ASXL1^FL-Flag (full-length ASXL1, Flag-tagged, in U2OS) (human) (UniProt Q8IXJ9). In words: affinity purification with mass spectrometry; whole cell lysate of U2OS cells expressing Flag-tagged full-length or truncated ASXL1; anti-Flag M2-agarose overnight at 4 °C, 6 washes with 300 mmol/L NaCl buffer, in-gel digest, nano LC-MS/MS.
For test [2], the target named is ASXL1^N646-Flag (in U2OS) (human) (UniProt Q8IXJ9). The description is as above.

No constants are given. Whether binding was seen depends on the method and setting. In cells and extracts the contact can be indirect. Here binding means that the protein was enriched with, or labelled near, the bait; the list need not be complete. For some assays here: A no says only that the protein was not detected with the bait.

For “endogenous FOXK2 (from UniProt Q01167 1-660)”, the binding result is “binds” in test [1] and “no binding” in test [2].
